According to patent publication US20180000089A1, “NOVEL MICROBIOCIDES” (Syngenta Participations AG, priority 2015, published 2018):
Some of these results come from one statement about several compounds together.

Tested on: Phytophthora infestans
Type: in vivo
Details: 200 ppm; tomato leaf disks, inoculated 1 day after application; assessed 5-7 days after application vs untreated

OB1OCc2cc(F)c(-c3ccccc3)cc21 [Compound 9]
disease control: at least 80%

Cc1nc2c(-c3cc4c(cc3Cl)COB4O)cccc2s1 [Compound 13, 4-(5-chloro-1-hydroxy-3H-2,1-benzoxaborol-6-yl)-2-methyl-1,3-benzothiazole]
disease control: at least 80%
